Results on 23 molecules are retold here after patent US20090036365A1.

The chains behind the UniProt entries cited, without tags or fusion partners. Residues count along the entry.
UniProt P00747, residues 97-810: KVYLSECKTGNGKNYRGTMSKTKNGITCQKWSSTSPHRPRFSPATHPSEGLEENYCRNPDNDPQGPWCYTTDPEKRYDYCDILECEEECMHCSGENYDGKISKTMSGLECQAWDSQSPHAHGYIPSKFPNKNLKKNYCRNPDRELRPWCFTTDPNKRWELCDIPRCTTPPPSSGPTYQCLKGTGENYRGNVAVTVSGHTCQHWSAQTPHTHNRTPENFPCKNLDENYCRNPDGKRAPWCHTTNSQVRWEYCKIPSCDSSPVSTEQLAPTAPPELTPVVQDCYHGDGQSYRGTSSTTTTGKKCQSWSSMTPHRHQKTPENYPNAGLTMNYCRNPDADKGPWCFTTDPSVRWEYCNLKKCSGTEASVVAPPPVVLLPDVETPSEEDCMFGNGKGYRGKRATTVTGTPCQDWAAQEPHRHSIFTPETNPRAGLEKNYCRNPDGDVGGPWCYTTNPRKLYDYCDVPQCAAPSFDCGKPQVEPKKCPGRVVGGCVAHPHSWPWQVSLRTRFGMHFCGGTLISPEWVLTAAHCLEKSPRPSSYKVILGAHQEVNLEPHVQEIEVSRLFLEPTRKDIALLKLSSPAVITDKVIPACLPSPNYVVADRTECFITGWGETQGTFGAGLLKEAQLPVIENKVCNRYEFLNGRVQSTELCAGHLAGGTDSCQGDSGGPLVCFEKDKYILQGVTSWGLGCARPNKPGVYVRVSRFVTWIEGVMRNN

In assay [1] the target is human plasmin (human) (UniProt P00747). Briefly: preliminary testing of proteins for plasmin inhibitory activity.
For assay [2] the target is unchanged. Briefly: phage display selection of the third library, three rounds on plasmin, isolate sequenced.
The target is the same in assay [3]. Briefly: ranking by plasmin inhibition (footnote of Table 8).
Assay [4] shares this target. Briefly: binding of clonally pure display phage to plasmin compared with BPTI display phage.
The target is the same in assay [5]. The assay is described as follows: phage display selection of the second library on plasmin, selected clone sequenced.
Assay [6] has the same target. The assay is described as follows: inhibition of plasmin hydrolysis of a fluorogenic substrate.

Results are given in words; binding and its absence hold for the method and conditions named. Some entries that bind do so weakly or less than the wild type.

B1: SPI51 (designed binder)
chain: MHSFCAFKADAGPCRAKFERFFFNIFTRQCTAFFYGGCGGNQNRFESLEECKKMCTRD
With B1, the binding result in assay [1], in assay [2] and in assay [3] was “binds” each time.

B2: SPI59 (designed binder)
chain: MHSFCAFKAETGPCRAKFDRWFFNIFTRQCNTFVYGGCGGNQNRFESLEECKKMCTRD
Consider B2, for which the binding entry in assay [2] was “binds”.

B3: SPI55 (designed binder)
chain: MHSFCAFKAEVGPCRAKFDRWFFNIFTRQCHLFTYGGCGGNQNRFESLEECKKMCTRD
As to B3, in assay [2], the binding entry is “binds”.

B4: SPI54 (designed binder)
chain: MHSFCAFKADSGPCRARFDRWFFNIFTRQCTRFPYGGCGGNQNRFESLEECKKMCTRD
Turning to B4, the binding result in assay [1], in assay [2] and in assay [3] was “binds” each time.

B5: SPI41 (designed binder)
chain: MHSFCAFKADAGPCRARFERFFFNIFTRQCDTFLYGGCEGNQNRFESLEECKKMCTRD
For the molecule B5, the binding result in assay [2] was “binds”.

B6: SPI49 (designed binder)
chain: MHSFCAFKAETGPCRAKIPRLFFNIFTRQCEPFIWGGCGGNQNRFESLEECKKMCTRD
For the molecule B6, in assay [2], the binding entry was “binds”.

B7: SPI42 (designed binder)
chain: MHSFCAFKAETGPCRGKFDRWFFNIFTRQCQGFVYGGCGGNQNRFESLEECKKMCTRD
Take B7: the binding entry in assay [2] is on record as “binds”.

B8: SPI43 (designed binder)
chain: MHSFCAFKAETGPCRGKFDRWFFNIFTRQCESFHYGGCKGNQNRFESLEECKKMCTRD
B8: the binding result in assay [1], in assay [2] and in assay [3] was “binds” each time.

B9: SPI53 (designed binder)
chain: MHSFCAFKAETGPCKGSFDRWFFNIFTRQCNVFRYGGCRGNQNRFESLEECKKMCTRD
Turning to B9, the binding result in assay [2] was “binds”.

B10: SPI60 (designed binder)
chain: MHSFCAFKAETGPCRAKFDRWFFNIFTRQCEPFVYGGCEGNQNRFESLEECKKMCTRD
B10: in assay [2], the binding result is given as “binds”.

B11: SPI56 (designed binder)
chain: MHSFCAFKAETGPCRGKFDRWFFNIFTRQCAQFVYGGCEGNQNRFESLEECKKMCTRD
Consider B11, for which the binding entry in assay [2] is “binds”.

B12: SPI22 (designed binder)
chain: MHSFCAFKADGGPCKGKFPRFFFNIFTRQCEEFIYGGCEGNQNRFESLEECKKMCTRD
In the case of B12, the binding entry in assay [4], in assay [1], in assay [5] and in assay [3] was “binds” each time.

B13: SPI47 (designed binder)
chain: MHSFCAFKADAGPCRAKFERFFFNIFTRQCEEFIYGGCEGNQNRFESLEECKKMCTRD
Regarding B13, the binding result in assay [1], in assay [2] and in assay [3] was “binds” throughout.

B14: SPI08 (designed binder)
chain: MHSFCAFKADGGPCRARFERFFFNIFTRQCEEFIYGGCEGNQNRFESLEECKKMCTRD
Turning to B14, the binding result in assay [4] and in assay [5] was “binds” each time.

B15: SPI23 (designed binder)
chain: MHSFCAFKAEGGPCRAKFQRWFFNIFTRQCEEFIYGGCEGNQNRFESLEECKKMCTRD
Turning to B15, the binding entry in assay [4], in assay [1], in assay [5] and in assay [3] was “binds” in each case.

B16: SPI15 (designed binder)
chain: MHSFCAFKAESGPCRARFDRWFFNIFTRQCEEFIYGGCEGNQNRFESLEECKKMCTRD
Consider B16, for which the binding entry in assay [4] and in assay [5] was “binds” throughout.

B17: SPI46 (designed binder)
chain: MHSFCAFKADVGPCRAKFERFFFNIFTRQCEAFLYGGCEGNQNRFESLEECKKMCTRD
Turning to B17, the binding entry in assay [2] is given as “binds”.

B18: SPI52 (designed binder)
chain: MHSFCAFKADAGPCRAKFERFFFNIFTRQCEAFLYGGCGGNQNRFESLEECKKMCTRD
With B18, the binding result in assay [2] was “binds”.

B19: SPI11 (Selected Plasmin Inhibitor#11) (designed binder)
chain: MHSFCAFKAETGPCRARFDRWFFNIFTRQCEEFIYGGCEGNQNRFESLEECKKMCTRD
Take B19: the binding entry in assay [4], in assay [1], in assay [5] and in assay [3] was “binds” each time.

B20: QS4, yeast-expressed soluble protein (designed binder)
chain: EAAEMHSFCAFKADDGPCKARFERFFFNIFTRQCEQFYYGGCDGNQNRFESLEECKKMCTRD
Take B20: the binding entry in assay [1] and in assay [3] was “binds” throughout.

B21: ARFK#2, yeast-expressed soluble protein (designed binder)
chain: EAAEMHSFCAFKADDGPCKARFERFFFNIFTRQCEEFVYGGCGGNQNRFESLEECKKMCTRD
Take B21: in assay [6], the binding entry was “binds”.

B22: ARFK#1, yeast-expressed soluble protein (designed binder)
chain: EAAEMHSFCAFKADDGPCKARFERFFFNIFTRQCEQFVYGGCGGNQNRFESLEECKKMCTRD
B22: in assay [6], the binding result was “binds”.

B23: SPI57 (designed binder)
chain: MHSFCAFKADSGPCKGRFGRLFFNIFTRQCTAFDWGGCGGNQNRFESLEECKKMCTRD
Take B23: the binding entry in assay [2] is on record as “binds”.
